The nature of this series: peptide synthesis. The note with it: whole synthesis.

Turning to “Leu Ser Glu Asp Lys Leu Leu Ala Cys Gly Glu Gly Ala Ala Asp Ile ile Ile Gly His Leu Cys Ile Arg His Glu Met Thr Pro Val Ash Pro Gly Val (LSEDKLLACGEGAADIIIGHLCIRHEMTPVNPGV)”, the “final HPLC purity” value stood at 99.9%.

These data come from patent US5707963A (Health Research, Incorporated, priority 1996, dated 1998).
